This is one part of the list.
Legend:
Assay in all cases: protein microarray (ProtoArray v5.0), streptavidin-Alexa Fluor 647
Settings in all cases: 3'-biotin; 20 mM Tris (pH 7.5), 5 mM MgCl2, 100 mM KCl, 0.1% Tween-20, A/T-rich and random oligonucleotide blockers; temperature not stated; high values mean tight binding
[1] = test system: UGP2 (human)
[2] = test system: ULK4 (human)
[3] = test system: UPF0417 protein FAM163A (human)
[4] = test system: UPF0545 protein C22orf39 (human)
[5] = test system: UPF0546 membrane protein C1orf91 (human)
[6] = test system: UPF0549 protein C20orf43 homolog (human)
[7] = test system: UPF0627 protein ENSP00000358171 (human)
[8] = test system: UROS (human)
[9] = test system: USE1 (human)
[10] = test system: USP47 (human)
[11] = test system: USP48 (human)
[12] = test system: UTP3 (human)
[13] = test system: Ubiquilin-4 (human)
[14] = test system: Ubiquilin-like protein (human)
[15] = test system: Ubiquitin carboxyl-terminal hydrolase 24 (human)
[16] = test system: Ubiquitin-conjugating enzyme E2 Z (human)
[17] = test system: Uncharacterized protein C11orf48 (human)
[18] = test system: Uncharacterized protein C11orf74 (human)
[19] = test system: Uncharacterized protein C12orf60 (human)
[20] = test system: Uncharacterized protein C17orf66 (human)

Q: Which results are given for “GGGGACAGGGGTATGGGGAGGGG [G4-3 biotinylated (CtG)]”?
A: binding signal [1]: -0.324 z-score; binding signal [2]: -0.321 z-score; binding signal [3]: -0.335 z-score; binding signal [4]: -0.316 z-score; binding signal [5]: -0.318 z-score; binding signal [6]: -0.323 z-score; binding signal [7]: -0.324 z-score; binding signal [8]: -0.318 z-score; binding signal [9]: -0.328 z-score; binding signal [10]: -0.326 z-score; binding signal [11]: -0.334 z-score; binding signal [12]: -0.349 z-score; binding signal [13]: -0.324 z-score; binding signal [14]: -0.329 z-score; binding signal [15]: -0.333 z-score; binding signal [16]: -0.302 z-score; binding signal [17]: -0.331 z-score; binding signal [18]: -0.333 z-score; binding signal [19]: -0.325 z-score; binding signal [20]: -0.326 z-score
